The assay has as its target T1, His-Spt4 (S. cerevisiae) (UniProt P32914).
T1 sequence: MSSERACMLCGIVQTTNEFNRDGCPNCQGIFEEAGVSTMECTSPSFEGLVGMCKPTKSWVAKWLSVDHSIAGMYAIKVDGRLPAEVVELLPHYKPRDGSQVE
Put plainly: co-purification; His-Spt4 and Spt5 co-expressed in Sf9; His-trap (300 mM NaCl, eluted with 250 mM imidazole), HiTrap Heparin and MonoQ salt gradients.

Our source for the binding values is article PMC7615648.

These are yes or no findings as the source states them, for the method shown. Some results given as binding are weak or reduced against the parent protein; the word gives no strength. Where a sequence is shown, tags or fusion partners need not be part of it.

B1: Spt5 (protein, UniProt P27692 1-1063)
chain: MSDNSDTNVSMQDHDQQFADPVVVPQSTDTKDENTSDKDTVDSGNVTTTESTERAESTSNIPPLDGEEKEAKSEPQQPEDNAETAATEQVSSSNGPATDDAQATLNTDSSEANEIVKKEEGSDERKRPREEDTKNSDGDTKDEGDNKDEDDDEDDDDDDDDEDDDDEAPTKRRRQERNRFLDIEAEVSDDEDEDEDEEDSELVREGFITHGDDEDDEASAPGARRDDRLHRQLDQDLNKTSEEDAQRLAKELRERYGRSSSKQYRAAAQDGYVPQRFLLPSVDTATIWGVRCRPGKEKELIRKLLKKKFNLDRAMGKKKLKILSIFQRDNYTGRIYIEAPKQSVIEKFCNGVPDIYISQKLLIPVQELPLLLKPNKSDDVALEEGSYVRIKRGIYKGDLAMVDQISENNLEVMLKIVPRLDYGKFDEIDPTTQQRKSRRPTFAHRAPPQLFNPTMALRLDQANLYKRDDRHFTYKNEDYIDGYLYKSFRIQHVETKNIQPTVEELARFGSKEGAVDLTSVSQSIKKAQAAKVTFQPGDRIEVLNGEQRGSKGIVTRTTKDIATIKLNGFTTPLEFPISTLRKIFEPGDHVTVINGEHQGDAGLVLMVEQGQVTFMSTQTSREVTITANNLSKSIDTTATSSEYALHDIVELSAKNVACIIQAGHDIFKVIDETGKVSTITKGSILSKINTARARVSSVDANGNEIKIGDTIVEKVGSRREGQVLYIQTQQIFVVSKKIVENAGVFVVNPSNVEAVASKDNMLSNKMDLSKMNPEIISKMGPPSSKTFQQPIQSRGGREVALGKTVRIRSAGYKGQLGIVKDVNGDKATVELHSKNKHITIDKHKLTYYNREGGEGITYDELVNRRGRVPQARMGPSYVSAPRNMATGGIAAGAAATSSGLSGGMTPGWSSFDGGKTPAVNAHGGSGGGGVSSWGGASTWGGQGNGGASAWGGAGGGASAWGGQGTGATSTWGGASAWGNKSSWGGASTWASGGESNGAMSTWGGTGDRSAYGGASTWGGNNNNKSTRDGGASAWGNQDDGNRSAWNNQGNKSNYGGNSTWGGH
In the case of B1, the binding result is reported as “binds”.
